This is one part of the list.

B1: il10ra_site1_sap_22_mot_HHH_b2_01729_af2_000000109_0001_43_56_H_._HHH_b2_04334_0001_0000200014_0000002_0_0001_af2pred_0001 (protein)
chain: SSSSSDEREVEQLVRAALRLARQTSDPESRKRDLRAARLAAEENNDEEAKRLVQEFEEELSSSSS
B2: il10ra_site1_normal_mot_6792f2186577ebd01aa11eb855ed7b57_0001_af2_000000149_0001_1_16_H_._HHH_b1_00312_af2_0001_0000200004_0000001_0_af2pred_0001 (protein)
chain: SSSSSSDEEEKLEQLLEELEETTDPEELLEIAREISKLAVRANDREFAERAIEILIKSSSSSSSS
B3: il10ra_site1_sap_16_mot_HHH_b1_00999_000000080_0001_41_55_H_._HHH_b2_05851_af2_0001_0000800033_0000001_0_0001_af2pred_0001 (protein)
chain: SSSSSEEEERVLELLLKVYRLLKEGDEEKAEEILREAEELAKEINDPRLRKAVKFYKDALSSSSS
B4: il10ra_site1_sap_26_mot_HHH_b2_03434_000000017_0001_1_19_H_._HHH_b1_00511_af2_0001_0000200009_0000001_0_0001 (protein)
chain: SSSSDKEENEELLEELERLIEEGDHEEALELAQEALRILIQNNDPEALRLLWELVKEIAKISSSS
B5: il10ra_site1_normal_mot_2c1a291787c6f40772924d4e9068d803_0001_af2_000000187_0001_34_48_H_._HHH_b2_04100_0001_0000400022_0000002_0 (protein)
chain: SSSSDEEDRLVFEVAAQAYLLFDKGNEEEARKVLKELEELAEELNDPRARLYVRALEELLSSSSS
B6: il10ra_site1_sap_22_mot_HHH_b1_08593_000000040_0001_43_57_H_._HHH_b2_06751_0001_0000100019_0000001_0_0001 (protein)
chain: SSSSDEEEEELEELVELLKKLLKEGDRERFAETAQRALRIAFQLSDPEALRELWELVRRAASSSS
B7: il10ra_site1_sap_19_mot_HHH_b1_05860_000000142_0001_1_19_H_._HHH_b1_04670_af2_0001_0000600070_0000001_0_0001 (protein)
chain: SDEEEAERILEKIKELAEEKNDEEVKVAVRFWERLDEDAKKLNNEEAVKSITWAAEALLELVEKS
B8: il10ra_site1_sap_24_mot_HHH_b2_03708_000000000_0001_1_18_H_._HHH_b1_06878_af2_0001_0000700017_0000001_0_0001 (protein)
chain: SSSSSSSNEEALEFLIWALEAATTEQQREAALRFLEAMARWLNDEEAEEVVEEFKERHSSSSSSS
B9: il10ra_site1_normal_mot_3c6ad1a4bc7d4f5cf55cee527202d42a_0001_000000108_0001_32_49_H_._HHH_b2_03602_af2_0001_0000600008_0000001_0_af2pred_dldesign_0_af2pred (protein)
chain: SSSSSDKEYYDALVKYYKEALALGKPEAAEKIALKGAEMRLEGKSLEEFEEKAKEILEEESSSSS
B10: il10ra_site1_sap_20_mot_HHH_b1_03262_af2_000000181_0001_43_57_H_._HHH_b1_08156_0001_0000100008_0000001_0_0001 (protein)
chain: SSSSDEAEEEVEELLEEAKRIEDPRELNEVLLRATQIALENNNPELLRLVWEVFRELVEGSSSSS
B11: il10ra_site1_normal_mot_HHH_b2_00108_000000012_0001_38_56_H_._HHH_b2_04021_0001_0000100005_0000002_0_af2pred_0001 (protein)
chain: SSSSSKEVASRFWRLSLKLLLEAGNEEDLKAALKAAEEAARQFNDEELEEEVEEIERELKSSSSS
B12: il10ra_site1_normal_mot_8756ee2cf497b5429c717dfc0c0bcfd6_0001_000000186_0001_1_13_H_._HHH_b1_02427_af2_0001_0000600028_0000001_0 (protein)
chain: SSSSDLEELFEILRRAAEALHEGNPEEAEKLLEEAREIAERLNNDVFRAQIEYLERQVEELSSSS
B13: il10ra_site1_normal_mot_HHH_b1_05021_af2_000000076_0001_42_56_H_._HHH_b1_01424_0001_0000300015_0000001_0_af2pred_0001 (protein)
chain: SSSSDESAELARRAVKLAVEIEEDPRRKEELEEEIEELLELLEELGNKTAVLSVEYMLELLSSSS
B14: il10ra_site1_sap_20_mot_HEEHE_1605_000000211_0001_40_56_H_._544ef0e38e907b7890d4414ebae48784_0001_1_0001_0000300011_0000001_0_0001 (protein)
chain: SSSSSEEEERLEELEEQLEEAVREGDRELVLELIQEILRLAYQLRDEEVLRELWEILRKLSSSSS
B15: il10ra_site1_sap_14_mot_HHH_b1_05357_000000034_0001_23_39_H_._HHH_b1_02749_0001_0000100001_0000002_0_0001 (protein)
chain: DEVEELIEELRKEGDPYAEELLEQLEHLERRDPWHARQVLMVFELLVRQLGDPREAVKDLVKIMR
B16: il10ra_site1_normal_mot_HHH_b2_01310_000000089_0001_41_55_H_._HHH_b2_00518_0001_0000400010_0000001_1 (protein)
chain: SSSSSEDEERIRELLEEAEEALEEGDREKAVRLLLEATQIAFENNNAEILQEVWEVARRLVSSSS
B17: il10ra_site1_normal_mot_HHH_b1_02397_af2_000000085_0001_39_57_H_._HHH_b2_00311_0001_0000500034_0000001_0 (protein)
chain: SSSSSSDLEELLEELEQLLEEGDHERFAEVALRILRLAFRLSDPEVLQAVWELVQRLASSSSSSS
B18: il10ra_site1_sap_28_mot_HHH_b2_08004_000000101_0001_1_17_H_._HHH_b1_01468_0001_0000100008_0000001_0_0001_af2pred_dldesign_0_af2pred (protein)
chain: SSSSSPEDLATARRLLEYAKFLKEAGDMESVKVAYDAIKTLAELTNNPEIKAILEEIKSLLSSSS

This assay concerns the target il10ra, Q13651. Description: yeast display titration.
With B1, the “apparent Kd” value is “inactive: no binding seen”.

B2: the “apparent Kd” value was “inactive: no binding seen”.

Turning to B3, the “apparent Kd” value is “inactive: no binding seen”.

For B4, the “apparent Kd” value is “inactive: no binding seen”.

As to B5, the “apparent Kd” value is “inactive: no binding seen”.

B6: the “apparent Kd” value is “inactive: no binding seen”.

For the molecule B7, the “apparent Kd” value was “inactive: no binding seen”.

As to B8, the “apparent Kd” value was “inactive: no binding seen”.

For the molecule B9, the “apparent Kd” value was “inactive: no binding seen”.

On to B10, for which the “apparent Kd” value was “inactive: no binding seen”.

In the case of B11, the “apparent Kd” value was “inactive: no binding seen”.

As to B12, the “apparent Kd” value is “inactive: no binding seen”.

With B13, the “apparent Kd” value was “inactive: no binding seen”.

For the molecule B14, the “apparent Kd” value was “inactive: no binding seen”.

As to B15, the “apparent Kd” value is “inactive: no binding seen”.

For B16, the “apparent Kd” value was “inactive: no binding seen”.

For B17, the “apparent Kd” value is “inactive: no binding seen”.

Take B18: the “apparent Kd” value is “inactive: no binding seen”.

The values are drawn from PMC10163288.
